Measured values taken from patent US5310757A, “3,3,5-trimethylcyclohexyl 2-methylpropionate derivatives, their method of preparation and therapeutic compositions in which they are present” (Panmedica, priority 1989, dated 1994).

Tested on: HMG-CoA red.
Assay: HMG-CoA red. activity "ex vivo" in liver microsomes after chronic intraperitoneal administration to rats
Details: inhibition of HMG-CoA red. activity, 50 mg/kg for 6 days, Control 0
Experimental: The inhibitory activity of the products according to the present invention was determined by the method of Kuroda et al. (Biochemica et Biophysica Acta, vol. 486, pp. 70-81 (1977)), which is a modification of the method of Shapiro et al. (Analytical Biochemistry, vol. 31, pp. 383-390 (1969)). […] The doses administered were 50 mg/kg for 6 days; six rats were used in each series; they are sacrificed without anaesthesia and the liver microsomes are isolated for the assay, which is performed according to the above-mentioned protocol.

## CC(C)OC(=O)C(C)(C)Oc1ccc(C(=O)c2ccc(Cl)cc2)cc1 [Fenofibrate, isopropyl 4-(4-chlorobenzoyl)phenoxyisobutyrate, reference compound]
  % inhibition: 75%
